Reference: PubChem BioAssay AID1224830 (NIAID, 2016)
In all, the deposit lists about 18,000 reagents; this is a part drawn at random. About 2,900 of them (16%) count as active. 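Calls are made per well; low scores hint the gene aids the LPS response, high scores that it dampens it.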 Entries without a mark were called inactive. Reagents against one gene are numbered here. Repeated entries: four replicate wells of each siRNA pool. No sequences are given here.

Test: 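Regulators of TLR4 signalling towards TNF-alpha in macrophage-like cells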 (primary screen)
Cells: human THP-1 monocytic leukaemia cells, TNF dual-luciferase reporter clone, PMA-differentiated to macrophage-like cells
Reagents: siRNA pool against human genes, 50 nM
Timing: LPS for 4 h, given about 3 days after siRNA transfection
Challenge: bacterial LPS (TLR4 ligand), 10 ng/ml
Measured: 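TNF firefly reporter luminescence divided by renilla, normalised to the plate median, then turned into a robust z-score for each replicate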
Scale: TNF reporter robust z-score: higher = stronger TNF reporter response to LPS
Active means: 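a well is active when its z-score exceeds 2.8 or falls below -1.5; control wells carry no call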

The opening 13 records, ahead of the listing:
| gene knocked down | reagent no. | TNF reporter robust z-score |
| --- | --- | --- |
| FUT1 (fucosyltransferase 1 (H blood group)) | 1 | 1.12 |
| FUT1 (fucosyltransferase 1 (H blood group)) | 1 | 0.68 |
| FUT1 (fucosyltransferase 1 (H blood group)) | 1 | 0.42 |
| FUT1 (fucosyltransferase 1 (H blood group)) | 1 | -0.32 |
| CNN1 (calponin 1) | 1 | 0.37 |
| CNN1 (calponin 1) | 1 | -0.73 |
| CNN1 (calponin 1) | 1 | -0.87 |
| CNN1 (calponin 1) | 1 | 0.16 |
| CENATAC (centrosomal AT-AC splicing factor) | 1 | 0.75 |
| CENATAC (centrosomal AT-AC splicing factor) | 1 | 3.26 (active) |
| CENATAC (centrosomal AT-AC splicing factor) | 1 | 2.11 |
| CENATAC (centrosomal AT-AC splicing factor) | 1 | -0.29 |
| DMAC1 (distal membrane arm assembly component 1) | 1 | -0.42 |

Main list, from the start:
| gene knocked down | reagent no. | TNF reporter robust z-score |
| --- | --- | --- |
| FUT1 (fucosyltransferase 1 (H blood group)) | 1 | 1.12 |
| FUT1 (fucosyltransferase 1 (H blood group)) | 1 | 0.68 |
| FUT1 (fucosyltransferase 1 (H blood group)) | 1 | 0.42 |
| FUT1 (fucosyltransferase 1 (H blood group)) | 1 | -0.32 |
| CNN1 (calponin 1) | 1 | 0.37 |
| CNN1 (calponin 1) | 1 | -0.73 |
| CNN1 (calponin 1) | 1 | -0.87 |
| CNN1 (calponin 1) | 1 | 0.16 |
| CENATAC (centrosomal AT-AC splicing factor) | 1 | 0.75 |
| CENATAC (centrosomal AT-AC splicing factor) | 1 | 3.26 (active) |
| CENATAC (centrosomal AT-AC splicing factor) | 1 | 2.11 |
| CENATAC (centrosomal AT-AC splicing factor) | 1 | -0.29 |
| DMAC1 (distal membrane arm assembly component 1) | 1 | -0.42 |
| DMAC1 (distal membrane arm assembly component 1) | 1 | -0.72 |
| DMAC1 (distal membrane arm assembly component 1) | 1 | -0.76 |
| N4BP3 (NEDD4 binding protein 3) | 1 | 0.01 |
| N4BP3 (NEDD4 binding protein 3) | 1 | -0.75 |
| N4BP3 (NEDD4 binding protein 3) | 1 | -1.51 (active) |
| N4BP3 (NEDD4 binding protein 3) | 1 | -0.99 |
| NRG3 (neuregulin 3) | 1 | 0.52 |
| NRG3 (neuregulin 3) | 1 | 0.81 |
| NRG3 (neuregulin 3) | 1 | 0.73 |
| NRG3 (neuregulin 3) | 1 | 0.71 |
| PAGE1 (PAGE family member 1) | 1 | -0.89 |
| PAGE1 (PAGE family member 1) | 1 | -0.67 |
| PAGE1 (PAGE family member 1) | 1 | 0 |
| PAGE1 (PAGE family member 1) | 1 | 0.31 |
| RPS6KA5 (ribosomal protein S6 kinase A5) | 1 | 2.07 |
| RPS6KA5 (ribosomal protein S6 kinase A5) | 1 | 0.34 |
| RPS6KA5 (ribosomal protein S6 kinase A5) | 1 | 1.21 |
| RPS6KA5 (ribosomal protein S6 kinase A5) | 1 | 1.04 |
| CYP2A7 (cytochrome P450 family 2 subfamily A member 7) | 1 | 0.14 |
| CYP2A7 (cytochrome P450 family 2 subfamily A member 7) | 1 | 1.02 |
| CYP2A7 (cytochrome P450 family 2 subfamily A member 7) | 1 | 0.47 |
| CHCHD5 (coiled-coil-helix-coiled-coil-helix domain containing 5) | 1 | -0.64 |
| CHCHD5 (coiled-coil-helix-coiled-coil-helix domain containing 5) | 1 | 0 |
| CHCHD5 (coiled-coil-helix-coiled-coil-helix domain containing 5) | 1 | -0.68 |
| CHCHD5 (coiled-coil-helix-coiled-coil-helix domain containing 5) | 1 | -0.35 |
| PLEKHO2 (pleckstrin homology domain containing O2) | 1 | -1.74 (active) |
| PLEKHO2 (pleckstrin homology domain containing O2) | 1 | -0.58 |
| PLEKHO2 (pleckstrin homology domain containing O2) | 1 | -1.23 |
| PLEKHO2 (pleckstrin homology domain containing O2) | 1 | -1.24 |
| INSM1 (INSM transcriptional repressor 1) | 1 | -1.24 |
| INSM1 (INSM transcriptional repressor 1) | 1 | -0.19 |
| INSM1 (INSM transcriptional repressor 1) | 1 | -0.31 |
| INSM1 (INSM transcriptional repressor 1) | 1 | -0.4 |
| WNK1 (WNK lysine deficient protein kinase 1) | 1 | 1.03 |
| WNK1 (WNK lysine deficient protein kinase 1) | 1 | 0.66 |
| WNK1 (WNK lysine deficient protein kinase 1) | 1 | -0.04 |
| WNK1 (WNK lysine deficient protein kinase 1) | 1 | 0.19 |
| WNK1 (WNK lysine deficient protein kinase 1) | 2 | -1.02 |
| WNK1 (WNK lysine deficient protein kinase 1) | 2 | -1.09 |
| WNK1 (WNK lysine deficient protein kinase 1) | 2 | -0.42 |
| WNK1 (WNK lysine deficient protein kinase 1) | 2 | 0.05 |
| TMEM52B (transmembrane protein 52B) | 1 | -0.44 |
| TMEM52B (transmembrane protein 52B) | 1 | 0 |
| TMEM52B (transmembrane protein 52B) | 1 | 2.16 |
| TMEM52B (transmembrane protein 52B) | 1 | -0.84 |
| LYPD3 (LY6/PLAUR domain containing 3) | 1 | -0.9 |
| LYPD3 (LY6/PLAUR domain containing 3) | 1 | 0.03 |
| LYPD3 (LY6/PLAUR domain containing 3) | 1 | -0.85 |
| LYPD3 (LY6/PLAUR domain containing 3) | 1 | 0.07 |
| HM13 (histocompatibility minor 13) | 1 | -0.67 |
| HM13 (histocompatibility minor 13) | 1 | 1.39 |
| HM13 (histocompatibility minor 13) | 1 | 0.92 |
| HM13 (histocompatibility minor 13) | 1 | 2.74 |
| FRA10AC1 (FRA10A associated CGG repeat 1) | 1 | -0.36 |
| FRA10AC1 (FRA10A associated CGG repeat 1) | 1 | -1.03 |
| FRA10AC1 (FRA10A associated CGG repeat 1) | 1 | -0.48 |
| CPSF7 (cleavage and polyadenylation specific factor 7) | 1 | 1.63 |
| CPSF7 (cleavage and polyadenylation specific factor 7) | 1 | 0.66 |
| CPSF7 (cleavage and polyadenylation specific factor 7) | 1 | 0.43 |
| CPSF7 (cleavage and polyadenylation specific factor 7) | 1 | 1.02 |
| ZNF557 (zinc finger protein 557) | 1 | -0.06 |
| ZNF557 (zinc finger protein 557) | 1 | 0.35 |
| ZNF557 (zinc finger protein 557) | 1 | -0.68 |
| ZNF557 (zinc finger protein 557) | 1 | 1.07 |
| WIPF3 (WAS/WASL interacting protein family member 3) | 1 | -0.31 |
| WIPF3 (WAS/WASL interacting protein family member 3) | 1 | 0.08 |
| WIPF3 (WAS/WASL interacting protein family member 3) | 1 | 0.3 |
| WIPF3 (WAS/WASL interacting protein family member 3) | 1 | 1.17 |
| STRAP (serine/threonine kinase receptor associated protein) | 1 | -1.43 |
| STRAP (serine/threonine kinase receptor associated protein) | 1 | 0.76 |
| STRAP (serine/threonine kinase receptor associated protein) | 1 | -0.23 |
| STRAP (serine/threonine kinase receptor associated protein) | 1 | 0.42 |
| NELFB (negative elongation factor complex member B) | 1 | 2.4 |
| NELFB (negative elongation factor complex member B) | 1 | 3.16 (active) |
| NELFB (negative elongation factor complex member B) | 1 | 3.22 (active) |
| NELFB (negative elongation factor complex member B) | 1 | 0.47 |
| TAX1BP1 (Tax1 binding protein 1) | 1 | -0.33 |
| TAX1BP1 (Tax1 binding protein 1) | 1 | 0.51 |
| TAX1BP1 (Tax1 binding protein 1) | 1 | -1.08 |
| TAX1BP1 (Tax1 binding protein 1) | 1 | -0.13 |
| ANOS1 (anosmin 1) | 1 | 0.65 |
| ANOS1 (anosmin 1) | 1 | 1.56 |
| ANOS1 (anosmin 1) | 1 | 0.41 |
| ANOS1 (anosmin 1) | 1 | 1.85 |
| TEFM (transcription elongation factor, mitochondrial) | 1 | -1.22 |
| TEFM (transcription elongation factor, mitochondrial) | 1 | -0.2 |
| TEFM (transcription elongation factor, mitochondrial) | 1 | 0 |
| TEFM (transcription elongation factor, mitochondrial) | 1 | -0.22 |
| SNX15 (sorting nexin 15) | 1 | -0.12 |
| SNX15 (sorting nexin 15) | 1 | 0.62 |
| SNX15 (sorting nexin 15) | 1 | 1.06 |
| SNX15 (sorting nexin 15) | 1 | 2.1 |
| CLEC2L (C-type lectin domain family 2 member L) | 1 | 0.73 |
| CLEC2L (C-type lectin domain family 2 member L) | 1 | 1.42 |
| CLEC2L (C-type lectin domain family 2 member L) | 1 | 1.07 |
| WNT10B (Wnt family member 10B) | 1 | -0.75 |
| WNT10B (Wnt family member 10B) | 1 | -0.04 |
| WNT10B (Wnt family member 10B) | 1 | -0.4 |
| WNT10B (Wnt family member 10B) | 1 | 0.69 |
